Laboratory results from PubChem BioAssay AID587 (National Center for Advancing Translational Sciences (NCATS), 2007).
Screen size: about 59,000 compounds; about 35 (0.06%) were called active. Inconclusive means that the source gave no clear call. Such entries were picked first, then a sample of the others. No stated cut-off is given here; in the data, active means max dye-equivalent concentration above about 10 nM; inconclusive means between about 1.1 nM and that limit; inactive means weaker than that.

test: qHTS Assay for Spectroscopic Profiling in Texas Red Spectral Region; details: Compound fluorescence, Texas Red channel, 547/618 nm; hits give high values
Summary of the method: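 Pin-transferred compounds and Texas Red standards go into 100 mM Tris buffer, pH 8.0. After 15 min at room temperature, plates are imaged with 547/618 nm filters. Each value is a dye-equivalent concentration derived from the per-plate dye curve.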

Compound | max dye-equivalent concentration
O=C(O)c1ccccc1NS(=O)(=O)c1ccccc1C(F)(F)F | inconclusive: 1.5 nM
CC(NC(=O)C(C)(C)C)c1nc2ccccc2n1C (stereo not given) | inconclusive: 1.1 nM
OC[C@@H]1O[C@@H](n2cnc3c(NC4CCCCC4)ncnc32)[C@@H](O)[C@H]1O | inconclusive: 2.1 nM
COc1ccc2[nH]c(=O)c(CN(Cc3ccco3)Cc3nnnn3Cc3ccccc3)cc2c1 | inconclusive: 1.5 nM
Cc1ccc(S(=O)(=O)NC(C)C(=O)NC2CCCCCC2)cc1 (stereo not given) | inconclusive: 1.1 nM
CCOC(=O)C1CN(c2cc3c(cc2F)c(=O)c(C(=O)O)cn3CC)OC1C(=O)OCC (stereo not given) | inconclusive: 1.4 nM
CCN(CC)C(=O)CN(C#N)c1nc(OC)nc(N(C)C)n1 | inconclusive: 1.2 nM
COc1ccccc1Cn1c(=O)c2ccccc2n2c(SCc3csc(C)n3)nnc12 | inconclusive: 3.2 nM
CC1CCc2[nH]nc(C(=O)O)c2C1 (stereo not given) | inconclusive: 3.4 nM
COc1ccc(S(=O)(=O)N2CCC(n3cnc4cc(C(F)(F)F)ccc43)CC2)cc1 | inconclusive: 1.3 nM
Cn1c(=O)cnc2cnc(Oc3ccccc3)nc21 | inconclusive: 1.1 nM
CCN1C(=O)c2cccc3c(NC(=O)C(C)(C)C)ccc1c23 | inconclusive: 2.3 nM
CN(Cc1ccccc1)Cc1nc2c([nH]1)c(=O)[nH]c(=O)n2C | inconclusive: 1.4 nM
COc1cccc2c1C(=O)c1c(O)c3c(c(O)c1C2=O)C[C@](O)(C(=O)CO)C[C@@H]3O[C@H]1C[C@H](N)[C@@H](O)[C@H](C)O1 | inconclusive: 1.3 nM
COC(=O)c1oc2ccc(OC)cc2c1N | inconclusive: 1.4 nM
COc1ccc(-c2nc(C#N)c(N3CCCCCC3)o2)cc1 | inconclusive: 4.2 nM
COc1cccc(C(c2nnnn2Cc2ccccc2)N2CCN(C(=O)c3ccco3)CC2)c1OC (stereo not given) | inconclusive: 1.3 nM
O=C(Nc1cccc(F)c1)c1ccc(S(=O)(=O)NCC2CCCO2)cc1 (stereo not given) | inconclusive: 1.6 nM
CCN1C(=O)c2cccc3c(NC(=O)c4ccc5c(c4)OCCO5)ccc1c23 | inactive
NCC[C@H]1CCC[C@H](CCN)N1 | inactive
CCOC(=O)c1c(C)nc(-c2ccccc2)nc1N | inconclusive: 1.4 nM
CN(c1cccc(NC(=O)CN2C(=O)c3ccccc3S2(=O)=O)c1)S(C)(=O)=O | inconclusive: 1.1 nM

A stretch from the list above, as a working copy:
Compound | max dye-equivalent concentration
OC[C@@H]1O[C@@H](n2cnc3c(NC4CCCCC4)ncnc32)[C@@H](O)[C@H]1O | inconclusive: 2.1 nM
COc1ccc2[nH]c(=O)c(CN(Cc3ccco3)Cc3nnnn3Cc3ccccc3)cc2c1 | inconclusive: 1.5 nM
Cc1ccc(S(=O)(=O)NC(C)C(=O)NC2CCCCCC2)cc1 (stereo not given) | inconclusive: 1.1 nM
CCOC(=O)C1CN(c2cc3c(cc2F)c(=O)c(C(=O)O)cn3CC)OC1C(=O)OCC (stereo not given) | inconclusive: 1.4 nM
CCN(CC)C(=O)CN(C#N)c1nc(OC)nc(N(C)C)n1 | inconclusive: 1.2 nM
COc1ccccc1Cn1c(=O)c2ccccc2n2c(SCc3csc(C)n3)nnc12 | inconclusive: 3.2 nM
CC1CCc2[nH]nc(C(=O)O)c2C1 (stereo not given) | inconclusive: 3.4 nM

Following part:

Compound | max dye-equivalent concentration
COc1cc(C(=O)OC(C)C(=O)N2CCc3ccccc3C2)ccc1OCC(=O)N1CCOCC1 (stereo not given) | inconclusive: 1.1 nM
C[N+]1(CCC(=O)c2ccco2)CC2CCC(CC2)C1 (stereo not given) | inactive
COc1ccc(S(=O)(=O)N2CCC(C(=O)Nc3nnc(CCN4CCCCC4)s3)CC2)cc1 | inconclusive: 2.2 nM
Cc1ncc(CSc2nnnn2-c2ccccc2)c(N)n1 | inconclusive: 2.4 nM
CCc1ccc(Nc2ncc3c(n2)CC(c2ccco2)CC3=O)cc1 (stereo not given) | inconclusive: 1.3 nM
CC(=O)c1ccc(-c2nc3ccccc3n2C)o1 | inconclusive: 1.1 nM
CC(NC(=O)c1ccnc(C(C)(C)C)c1)c1ccccc1 (stereo not given) | inconclusive: 1.7 nM
CCSc1nc(-c2ccc(OC)cc2)n(-c2nc3ccccc3s2)n1 | inconclusive: 1.4 nM
COc1cccc(C(=O)Oc2cc(N)n(S(=O)(=O)c3ccc(C)cc3)n2)c1OC | inconclusive: 1.1 nM
Cc1ccc(S(=O)(=O)N2Cc3ccccc3CC2C(=O)Nn2cnnc2)cc1 (stereo not given) | inconclusive: 1.4 nM
COc1ccc(S(=O)(=O)N(CC(=O)NC2CC2)C2CCCCC2)cc1Cl | inconclusive: 1.4 nM
COc1ccc(C(=O)Nc2nc3nc(-c4ccccc4)cc(=O)n3[nH]2)cc1 | inconclusive: 1.1 nM
CC(=O)c1cccc(NC(=O)Nc2ccc(C(=O)N3CCCC3)cc2)c1 | inconclusive: 2.7 nM
COc1ccc2cc(C#N)c(SCC(=O)N3CCCC3)nc2c1 | inconclusive: 1.3 nM
Cc1ccccc1N1OC2C(=O)N(c3ccc(F)cc3)C(=O)C2C1c1ccccn1 (stereo not given) | inconclusive: 1.1 nM
COC(=O)c1cc(=O)nc2sc(-c3ccccc3)nn12 | inconclusive: 1.7 nM
N#C/C(=C(/O)COC(=O)CCCNC(=O)c1ccc(Cl)cc1)c1nc2ccccc2[nH]1 | inconclusive: 1.8 nM
C=C(C)c1cccc(C(C)(C)NC(=O)N2CCN(CC(N)=O)CC2)c1 | inconclusive: 1.6 nM
CCn1c(Cc2ccccc2)nnc1SCc1nc2ccccc2c(=O)[nH]1 | inconclusive: 1.7 nM
CCOC(=O)c1[nH]c(C)c(/C(O)=C2\C(=O)C(=O)N(CCN(C)C)C2c2ccco2)c1C (stereo not given) | inactive
CS(=O)(=O)Nc1ccc(S(=O)(=O)Nc2nccs2)cc1 | inconclusive: 1.1 nM
C=CCSC1=C(C#N)C(c2cccc(OC)c2)CC(=O)N1 (stereo not given) | inconclusive: 1.1 nM

Compound | max dye-equivalent concentration
COc1ccc(N(Cc2cc3cc(OC)ccc3[nH]c2=O)S(C)(=O)=O)cc1 | inconclusive: 1.1 nM
O=C(Oc1ccccc1)c1ccc(COC(=O)c2cnccn2)cc1 | inconclusive: 1.2 nM
Cc1cc(C)n(-c2nc(NC(C)C)nc(NC(C)C)n2)n1 | inconclusive: 1.4 nM
CC(=O)Nc1nc(COc2ccccc2)cs1 | inconclusive: 1.1 nM
COc1ccccc1OCC(=O)NCc1ccco1 | inconclusive: 1.1 nM
CC/C(=C(\c1ccccc1)c1ccc(OCCN(C)C)cc1)c1ccccc1 | inconclusive: 1.7 nM
OC(COCC1CC=CCC1)Cn1cnc2ccccc21 (stereo not given) | inconclusive: 1.3 nM
CC(C)(C)OC(=O)N1CCNc2ccccc2C1 | inconclusive: 1.1 nM
CCc1oc2ccccc2c1C(=O)c1cc(Br)c(O)c(Br)c1 | inconclusive: 1.7 nM
CCOc1ccc(-c2cc(CCCC(=O)NCCCOC)no2)cc1 | inconclusive: 3.3 nM
Cc1cc(Cl)cc(Br)c1OCCCCn1cncn1 | inconclusive: 4.5 nM
CCCCOc1ccc(-c2c(C#N)c(N)nc(SCC(N)=O)c2C#N)cc1 | inconclusive: 1.7 nM
COc1ccc(Nc2nnc(C)c3ccccc23)cc1C(N)=O | inconclusive: 1.1 nM
CN(C)c1cccc(-c2nnc(SCCCC#N)o2)c1 | inconclusive: 1.1 nM
COc1ccccc1NC(=O)CSc1nnc(Cn2nnc(-c3ccccc3)n2)n1-c1ccccc1 | inconclusive: 1.1 nM
COC(=O)c1c(C)oc2ccc(OC(=O)N3CCOCC3)cc12 | inconclusive: 1.5 nM
Cc1ccc(NC(=O)c2cc(S(=O)(=O)N3CCC4(CC3)OCCO4)ccc2F)cc1 | inconclusive: 1.2 nM
Cc1cccc(CN2CCN([C@@H](c3ccccc3)c3ccc(Cl)cc3)CC2)c1 | inactive
Cc1c(C)n(CC(O)CN2CCOCC2)c2ccccc12 (stereo not given) | inconclusive: 3.2 nM
CCOc1ccccc1Oc1c(C)oc2c(CN3CCN(CCO)CC3)c(O)ccc2c1=O | inconclusive: 1.3 nM
C[C@@H](Cc1ccccc1)Nc1ncnc2c1ncn2[C@@H]1O[C@@H](CO)[C@H](O)[C@@H]1O | inactive
O=C(NCC(=O)N(c1ccccc1F)C(C(=O)NCC1CCCO1)c1ccccc1)c1ccco1 (stereo not given) | inconclusive: 1.1 nM

Compound | max dye-equivalent concentration
COc1ccc(N2CCN(C(=O)CSc3ccccc3N)CC2)cc1 | inconclusive: 1.4 nM
Cc1ccccc1CSCC(=O)c1c(N)n(C)c(=O)n(C)c1=O | inconclusive: 1.1 nM
NCc1ccc(S(N)(=O)=O)cc1 | inconclusive: 1.1 nM
CC1CCCC(C)N1S(=O)(=O)c1ccc(NC(=O)CNCC2CCCO2)cc1 (stereo not given) | inconclusive: 1.8 nM
Cc1ccccc1NC(=O)Cc1nc(CSc2nnc(C3CCCCC3)n2N)cs1 | inconclusive: 2.2 nM
CCOc1cc(C2CC(=O)Nc3cc(C)c(C)cc32)ccc1O (stereo not given) | inconclusive: 1.1 nM
CC1CCC(C(=O)NC(C(=O)N2CCC(N3CCCCC3)CC2)C(C)C)CC1 (stereo not given) | inconclusive: 1.5 nM
CC1(C)Cc2cccc(OCC(=O)Nc3ccccc3N3CCOCC3)c2O1 | inconclusive: 1.4 nM
Cn1c(=O)c2c(nc(NCCO)n2C)n(C)c1=O | inconclusive: 2.2 nM
O=C(CCNS(=O)(=O)c1ccc(Br)s1)N1CCCCC1 | inconclusive: 1.3 nM
COc1ccccc1NC(=O)CSc1nnc(Cc2cc(=O)[nH]c(=O)[nH]2)n1-c1ccccc1 | inconclusive: 1.1 nM
COc1ccccc1CN1CCCC(C(=O)N(C)Cc2ccccc2)C1 (stereo not given) | inconclusive: 2 nM
N#CC1=C(N)C(C#N)(C#N)C2(CCC3(CC2)OCCO3)C2CC3(CC=C12)OCCO3 (stereo not given) | inconclusive: 1.4 nM
CC(C)(C)c1csc(NC(=O)c2ccc(Cl)s2)n1 | inconclusive: 1.2 nM
O=C1Nc2ccccc2C12OCC(COc1ccc(Cl)cc1)O2 (stereo not given) | inconclusive: 1.3 nM
CNC(=O)c1cc2cccc(OC)c2oc1=O | inconclusive: 1.1 nM
Cc1cccn2c(=O)c3cc(C#N)c(=NC(=O)c4ccncc4)n(CCCOC(C)C)c3nc12 | inconclusive: 1.3 nM
C[C@H](C(=O)O)c1n[nH]c(=O)c2ccccc12 | inconclusive: 1.4 nM
CCc1ccccc1NC(=O)c1ccoc1C | inconclusive: 1.1 nM
